Source: publication PMC3264624
Results are given in words; binding and its absence hold for the method and conditions named.

Sequences of proteins named here, by UniProt entry; tags and fusion partners are left off.
UniProt P40350: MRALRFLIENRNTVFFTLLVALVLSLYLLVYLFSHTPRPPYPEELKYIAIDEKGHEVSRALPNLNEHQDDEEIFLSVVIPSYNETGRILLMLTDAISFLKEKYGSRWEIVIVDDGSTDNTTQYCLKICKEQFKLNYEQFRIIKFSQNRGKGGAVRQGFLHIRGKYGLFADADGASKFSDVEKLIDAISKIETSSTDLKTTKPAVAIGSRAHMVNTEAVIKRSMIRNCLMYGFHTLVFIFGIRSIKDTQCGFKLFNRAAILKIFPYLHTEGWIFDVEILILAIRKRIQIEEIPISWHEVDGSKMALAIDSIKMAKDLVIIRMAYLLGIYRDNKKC

Target: yeast resident ER protein Alg5, split-ubiquitin control fusion (yeast) (UniProt P40350)
Assay: two-hybrid; yeast split-ubiquitin system (SUS), strain NMY32; Cub bait and NubG prey; growth on -LWH medium with 15 mM 3-AT, dilution series

- binding: no binding
Substance: NFR5, yeast split-ubiquitin fusion (from UniProt Q70KR1 1-595) (receptor)
